Laboratory results reported in publication doi:10.1101/2020.12.03.409912.
Results are given in words; binding and its absence hold for the method and conditions named. Binding seen in cells or lysates may run through a third protein. A yes stands for co-enrichment or nearness to the bait. Other partners may have been found. Values belong to the molecule of their own block, whether it stands above or below them.

Protein sequences, listed by entry. Tags and fused reporters are not part of them.
UniProt Q63943: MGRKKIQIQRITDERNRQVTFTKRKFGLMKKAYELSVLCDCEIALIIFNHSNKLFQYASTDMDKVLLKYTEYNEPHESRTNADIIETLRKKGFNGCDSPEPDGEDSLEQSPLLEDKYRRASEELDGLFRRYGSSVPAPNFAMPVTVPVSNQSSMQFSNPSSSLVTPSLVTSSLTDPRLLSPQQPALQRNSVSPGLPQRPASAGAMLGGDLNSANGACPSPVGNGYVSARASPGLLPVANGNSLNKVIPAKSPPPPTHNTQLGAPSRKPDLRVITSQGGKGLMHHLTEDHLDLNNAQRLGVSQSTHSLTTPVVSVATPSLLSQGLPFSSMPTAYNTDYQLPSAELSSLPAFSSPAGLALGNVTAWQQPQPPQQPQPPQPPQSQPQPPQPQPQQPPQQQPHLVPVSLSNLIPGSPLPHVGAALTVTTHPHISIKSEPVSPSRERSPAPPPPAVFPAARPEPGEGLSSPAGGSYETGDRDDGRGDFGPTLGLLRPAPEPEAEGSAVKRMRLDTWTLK
UniProt Q61666: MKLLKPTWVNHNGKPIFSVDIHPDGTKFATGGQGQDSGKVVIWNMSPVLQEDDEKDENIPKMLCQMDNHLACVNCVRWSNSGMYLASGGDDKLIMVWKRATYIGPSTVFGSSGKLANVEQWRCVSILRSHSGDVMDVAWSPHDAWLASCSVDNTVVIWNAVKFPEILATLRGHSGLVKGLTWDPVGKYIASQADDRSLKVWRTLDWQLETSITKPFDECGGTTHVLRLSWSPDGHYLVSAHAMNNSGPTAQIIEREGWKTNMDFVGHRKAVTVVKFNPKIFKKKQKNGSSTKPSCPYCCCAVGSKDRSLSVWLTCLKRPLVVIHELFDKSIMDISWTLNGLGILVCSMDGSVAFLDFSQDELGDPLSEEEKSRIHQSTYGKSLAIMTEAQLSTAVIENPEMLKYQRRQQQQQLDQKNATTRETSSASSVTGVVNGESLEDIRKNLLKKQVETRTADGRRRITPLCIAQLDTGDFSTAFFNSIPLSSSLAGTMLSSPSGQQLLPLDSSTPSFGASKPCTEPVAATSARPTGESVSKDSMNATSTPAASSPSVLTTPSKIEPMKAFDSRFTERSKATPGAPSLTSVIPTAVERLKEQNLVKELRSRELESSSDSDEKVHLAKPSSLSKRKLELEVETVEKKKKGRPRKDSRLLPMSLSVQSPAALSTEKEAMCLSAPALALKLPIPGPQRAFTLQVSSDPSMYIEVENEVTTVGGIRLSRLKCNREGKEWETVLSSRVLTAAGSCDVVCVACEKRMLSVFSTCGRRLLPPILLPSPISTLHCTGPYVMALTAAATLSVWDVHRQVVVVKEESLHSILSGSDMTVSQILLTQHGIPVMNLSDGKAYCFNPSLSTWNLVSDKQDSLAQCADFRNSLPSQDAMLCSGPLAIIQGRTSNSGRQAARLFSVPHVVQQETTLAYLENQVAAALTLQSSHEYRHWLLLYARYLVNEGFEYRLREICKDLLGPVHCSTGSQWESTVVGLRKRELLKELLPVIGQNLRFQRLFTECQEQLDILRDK

Legend:
Test in all cases: affinity purification with mass spectrometry
UBN2-AVI = UBN2-AVI (UniProt Q80WC1)
UBN1-AVI = UBN1-AVI (UniProt Q4G0F8)
UBN2-AVI, Q80WC1 = target: T1, UBN2-AVI, Q80WC1; conditions: remark: other sources report otherwise
T1 chain: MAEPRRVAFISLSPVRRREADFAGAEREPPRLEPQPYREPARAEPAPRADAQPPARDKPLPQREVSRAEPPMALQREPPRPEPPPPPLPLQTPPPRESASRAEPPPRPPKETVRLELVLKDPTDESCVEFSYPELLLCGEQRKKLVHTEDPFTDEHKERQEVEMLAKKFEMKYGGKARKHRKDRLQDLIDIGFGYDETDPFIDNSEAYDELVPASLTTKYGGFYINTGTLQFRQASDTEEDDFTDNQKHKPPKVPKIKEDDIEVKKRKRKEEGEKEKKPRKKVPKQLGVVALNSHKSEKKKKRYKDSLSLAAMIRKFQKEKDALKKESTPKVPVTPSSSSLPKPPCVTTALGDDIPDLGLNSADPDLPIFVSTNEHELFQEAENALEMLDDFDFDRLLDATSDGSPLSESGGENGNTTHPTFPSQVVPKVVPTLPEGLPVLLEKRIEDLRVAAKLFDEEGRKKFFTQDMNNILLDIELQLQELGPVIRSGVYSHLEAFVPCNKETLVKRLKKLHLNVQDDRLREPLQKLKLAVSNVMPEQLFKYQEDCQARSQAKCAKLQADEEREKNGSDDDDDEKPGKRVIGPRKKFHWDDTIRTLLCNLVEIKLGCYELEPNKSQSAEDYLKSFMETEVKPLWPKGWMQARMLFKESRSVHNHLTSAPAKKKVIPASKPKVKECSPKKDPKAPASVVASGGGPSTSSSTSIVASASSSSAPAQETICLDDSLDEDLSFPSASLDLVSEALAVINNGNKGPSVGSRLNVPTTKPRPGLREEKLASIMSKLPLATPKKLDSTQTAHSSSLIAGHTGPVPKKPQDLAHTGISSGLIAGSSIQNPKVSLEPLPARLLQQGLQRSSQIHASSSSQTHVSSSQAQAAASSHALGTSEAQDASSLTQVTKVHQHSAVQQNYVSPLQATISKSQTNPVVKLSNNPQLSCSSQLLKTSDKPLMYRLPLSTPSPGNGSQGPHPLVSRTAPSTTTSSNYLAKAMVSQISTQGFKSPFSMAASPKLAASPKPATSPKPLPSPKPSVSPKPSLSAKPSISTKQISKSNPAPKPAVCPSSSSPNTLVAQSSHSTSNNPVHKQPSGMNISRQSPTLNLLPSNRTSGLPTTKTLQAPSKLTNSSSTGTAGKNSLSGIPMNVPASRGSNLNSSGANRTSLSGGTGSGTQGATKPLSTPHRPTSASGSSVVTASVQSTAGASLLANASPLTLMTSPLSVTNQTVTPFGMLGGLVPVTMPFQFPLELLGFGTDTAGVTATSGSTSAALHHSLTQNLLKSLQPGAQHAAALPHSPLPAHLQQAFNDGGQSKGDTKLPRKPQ

Molecule: MEF2D (from UniProt Q63943 1-514)
binding (UBN1-AVI): binds

B2: UBN1, Q4G0F8 1-1135 (protein)
chain: MSEPHRVQFTSVPGSLNPAFLKKSRKEEVGGTEQHQDCEPAAAAVRITLTLFEPDHKRCPEFFYPELVKNIRGKVKGLHPGDKKKDVLDPFNDEEKERHKVEALARKFEEKYGGKKRRKDRIQDLIDMGYGYDESDSFIDNSEAYDELVPASLTTKYGGFYINSGTLQFRQASESEDDFIKEKKKKSPKKRKLKEGGEKIKKKKKDDTYDKEKKSKKSKFSKAGFTALNASKEKKKKKYSGSLSVREMLKKFQKEKEAQKKREEEHKPVAVSSIEAQGLRELEGTSDPLLSLFGSTSDNDLLQAATAMDSLTDLDLEQLLSESPEGSPFRDMDDGSDSLGVGLDQEFRQPSSFPEGLPIPLEKRVKELAQAARAAEGESKQKFFTQDINGILLDIEVQTRELTSQIRSGVFAYLASFLPCSKDALVKRARKLHLYEQGGRLKEPLQKLKDAIGRAMPEQVAKYQDECQAHTQAKVAKMLEEEKDKEQRERICSDEEEDEEKGGRRIMGPRKKFQWNDEIRELLCQVVKIKLESRDLERNSKAQAWEDCVKAFLDAEVKPLWPKGWMQARTLFKESRRGHGHLTSLLAKKKVIAPSKIKMKESSVKLDKKVSVPSGQHGGPTTLLSEHQGGGLNTGANSREHPSQATCGLTDSVSVTLEDSLDEDLVRNPASSVDAVSKELATLNSRAANSSEFTLPTPSKAPTEKVGGVLCTEEKRNFAKPSSSAPPPTNALQSPLNFLAEQALALGQSSQEKKPEGSGFKELSCQGPLSKGVPELHPSKAKHHNLPRTSHGPQAAAPVPGPQVKVFHAGTQQQKSFTPPSPFVNKLQGPKATSPQCHRSLLQLVKTAAKGQAFHATMPASSGSSPASSSSAHKTTASNSTTISHPAKLHPTSSVGPSYKNNPFAGSVSKHGASSSSPSPGGGAQVQSSVSGASLPGVQSPSAGQSASRAAPSSAVKKTPVTQKLTLVAPPGGPNGDSGGGTQGVAKLLTSSLKPAAVSSVTSSTSLPKGTGGAVLLSNTSSLSLLSSSYKSNNPKLPGAMNSNSLGIITQFPLHVLSFNADSSAKAGVSKDAIVTGPAPGTFHHGLSHSLLAGLHSSPPHTAPLPHAAVSTHVPQSLPDASQLHGKGPVVPRKL
binding (UBN2-AVI, Q80WC1): binds

The next lines start with the values.

binding (UBN2-AVI): binds
Molecule: HIRA (from UniProt Q61666 1-1015)

binding (UBN2-AVI): binds
B1: ZNF639 (protein, UniProt Q99KZ6 1-485)
chain: MNEYPKKRKRKTLHPSRYSDSSGISRIADGVSGIFSDHCYSVCSMRQPDLKYFDNKDDDSDPETANDLPKFADGTKARNRNQSYLVPSPVLRILDHTVFSTEKSTEVEICDEECASPESVHQHTQEESPIEVHTSEDVPIAVEVHAISEDYDIEAENNSSESLQDQADEEPPAKLCKILDKGQALNVTAQQKWPLLRANSSGLYKCELCEFNSKYFSDLKQHVILKHKRTDSNVCRVCKESFSTNMLLIEHAKLHEEDPYICKYCDYKTVIFENLSQHIADTHFSDHLYWCEQCDVQFSSSSELYLHFQEHSRDEQYLCQFCEHETGDPEDLHSHVVNEHARRLIELSDKCGSGGHGQCSLLSKITFDKCKNFFVCQVCGFRSRLHTNVNRHVAIEHTKIFPHVCDDCGKGFSSMLEYCKHLNSHLSEGIYLCQYCEYSTGQIDDLKIHLDFKHSADLPHKCSECLMRFGNERDLLGHLQVHETT
